According to US20230332203A1, “RAPID ANTIBIOTIC SUSCEPTIBILITY TESTING” (IOWA STATE UNIVERSITY RESEARCH FOUNDATION, INC., priority 2022, published 2023):

System: E. coli JJ1886 (JJ, resistant)
Settings: 20% D2O

Structure (SMILES): O=C(O)c1cn(C2CC2)c2cc(N3CCNCC3)c(F)cc2c1=O [ciprofloxacin]
- change of average molecular weight of PE 32:1 with culture time (10 μg/mL, 30 min to two hours): increases
- concentration up to which the molecular weight of PE 32:1 remains consistent (no decrease in deuterium labeling) (two-hour culture, resistant strain): 80 µg/mL
